The assay can be described thus: qHTS Assay to Find Inhibitors of Chronic Active B-Cell Receptor Signaling. The settings on record: ABC-DLBCL IkBa-CBG/CBR reporter, luminescence ratio (green luciferase fused to IkBa over red control in TMD8 lymphoma cells), 4 h. The gist of the method:
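Doxycycline induced both beetle luciferases in TMD8 lymphoma cells; IKK-driven degradation limits the IkappaBalpha-fused green signal, while red luminescence normalises for cell number and nonspecific effects. Compounds tested up to 46 uM, 4 hrs.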

Setting [1] is: measured here: CBR red luminescence, cell number.
Where [2] appears, read: measured here: IkBa-CBG green luminescence.

AC50 data for 63 compounds are collected here from PubChem BioAssay AID493014 (National Center for Advancing Translational Sciences (NCATS), 2011).

Molecules are shown by their SMILES. The list shows a part of the results. The main result of the screen is listed elsewhere. These columns were measured beside it and carry no call. Compounds called inactive in the main read-out are mostly missing here. Potencies come from curve fits of mixed quality, noted in brackets.

As to `Cc1ccc(Nc2nc3nonc3[nH]c2=O)cc1C`, the AC50 under setting [1] was 16.4 µM [falling, partial curve, poor fit].
Same read-out and setting: the same measure for `O=C(c1ccccc1)c1c[nH]c(C(=O)NNc2ccccc2)c1`: 7.94 µM [falling, partial curve]; for `CCN(Cc1ccncc1)C(=O)c1ccccc1NS(=O)(=O)c1ccc(Br)cc1`: 0.224 µM [rising, full curve, poor fit]; for `CCOc1ccc(-n2c(-c3ccco3)n[nH]c2=S)cc1`: 0.562 µM [rising, partial curve, poor fit].
Turning to `N#Cc1ccc(CSc2nc(N)cc(N)n2)cc1`, under setting [1], the AC50 was 22.4 µM [rising, single point].
Take `COCCn1c(C)cc(/C=C(\C#N)C(=O)OCC(=O)Nc2ccc(S(N)(=O)=O)cc2)c1C`: the AC50 under setting [1] was 14.6 µM [rising, partial curve, poor fit].
On the same count and under the same terms, the value for `Nc1ccccc1C(=O)N=Nc1[nH]c(N)c2ccccc12` was 9.2 µM [falling, partial curve].
Regarding `N#Cc1ccccc1NC(=O)c1cccc(COc2ccc(Cl)cc2Cl)c1`, the AC50 is, setting by setting: under setting [1], 0.92 µM [rising, full curve]; under setting [2], 25.9 µM [falling, partial curve, poor fit].
For the compound `Cc1cc(F)c(F)c(C(=O)N2CCN(C)CC2)c1Cl`, under setting [1], the AC50 was 15.8 µM [rising, partial curve, poor fit].
With `Cc1csc(NC(=O)c2ccc(COc3ccccc3)o2)n1`, under setting [1], the AC50 was 14.1 µM [falling, partial curve].
Regarding `COc1ccccc1N1CCN(c2nc3ccccc3nc2C(C#N)C(=O)OC(C)C)CC1` (configuration not stated), the AC50 under setting [1] is 29.1 µM [falling, single point].
Same read-out and setting: the value for `COc1ccc(Cc2nc(-c3ccc(Cl)cc3)no2)cc1` was 0.103 µM [rising, full curve, poor fit]; that for `O=C(C[n+]1ccc2ccccc2c1)c1ccccc1` was 0.631 µM [rising, partial curve, poor fit]; that for `COc1cc(OC)cc(C(=O)N[C@@H](CCSC)c2nc3ccccc3[nH]2)c1` was 35.5 µM [falling, single point].
With `O=C(c1ccc(Cl)cc1)N1CCCC(c2ccccc2)=N1`, the AC50 under setting [1] was 0.447 µM [falling, full curve].
The same measure, in the same setting: the same measure for `Cc1cc(C(=O)Nc2nc3ccc(Cl)cc3s2)nn1C`: 2 µM [falling, full curve, poor fit]; for `O=C(/C=C/c1ccc(F)cc1)NCCCN1CCN(CCCNC(=O)/C=C/c2ccc(F)cc2)CC1`: 0.164 µM [rising, full curve, poor fit].
`COc1cc(N)c(Cl)cc1C(=O)OCC(=O)Nc1cccnc1Cl`: the AC50 under setting [1] was 6.51 µM [rising, single point].
On the same count and under the same terms, the same measure for `CN(C)S(=O)(=O)c1cccc(NC(=S)Nc2cccc3cnccc23)c1`: 35.5 µM [falling, single point].
On the same count and under the same terms, the same measure for `CCOc1ccc(/C=C2\CCc3ccccc3C2=O)cc1`: 2.51 µM [rising, partial curve, poor fit]; for `O=C(N/N=C/C=C/c1ccco1)c1cccc([N+](=O)[O-])c1`: 16.4 µM [rising, single point].
The same measure, in the same setting: the same measure for `Cn1cccc1C(=O)NC(=O)COC(=O)CNC(=O)c1ccc(Cl)cc1Cl`: 15.8 µM [rising, partial curve, poor fit]; for `COC(=O)Cc1ccc(NC(=S)NC2CC2)cc1`: 20 µM [rising, single point].
Turning to `COc1cccc(C(=O)NNC(=O)C2CCCO2)c1` (configuration not stated), the AC50 under setting [1] was 15.8 µM [falling, partial curve, poor fit].
Still for that read-out and setting: the same measure for `CC(=NNC(=O)c1ccc(NS(=O)(=O)c2ccc(Br)cc2)cc1)c1cccnc1`: 13 µM [falling, partial curve].
On the same count and under the same terms, the value for `Cc1csc(NC(=O)CCNC(=O)c2ccccc2Cl)n1` was 8.91 µM [falling, partial curve, poor fit]; that for `CN(C)C(=O)c1ccc2c(c1)C1C3CCC(C3)C1C(c1ccccc1)N2` (configuration not stated) was 8.2 µM [falling, partial curve, poor fit].
Still for that read-out and setting: the value for `CC(/C=C/c1ccccc1)=N/NC(=O)c1cnccn1` was 0.411 µM [rising, full curve, poor fit]; that for `O=C(CCS(=O)(=O)c1ccccc1)Nc1ccc(-c2nc3ccccc3s2)cc1` was 0.116 µM [falling, full curve].
As to `Cc1nc(-c2ccccc2)sc1-c1nc(-c2ccncc2)ncc1S(=O)(=O)c1ccccc1`, under setting [1], the AC50 is 0.891 µM [rising, full curve, poor fit].
Still for that read-out and setting: the same measure for `O=C(NNC(=O)c1cccs1)c1cccc(F)c1`: 12.6 µM [falling, single point].
Take `Cc1sc2ncnc(Sc3nnnn3-c3ccccc3)c2c1C`: the AC50 under setting [1] is 3.55 µM [falling, partial curve].
`CCOC(=O)N1CCC(N2CCN(S(=O)(=O)c3ccc(Cl)cc3)CC2)CC1`: the AC50 under setting [1] is 0.58 µM [falling, partial curve, poor fit].
Consider `O=C(O)c1cc(-c2ccccc2)n(-c2ccc(Cl)cc2Cl)n1`, for which, under setting [1], the AC50 is 6.31 µM [falling, single point].
Same read-out and setting: the value for `O=C(O)C(Cc1ccccc1)N=Cc1c(O)c2ccccc2oc1=O` (configuration not stated) was 8.91 µM [falling, partial curve, poor fit]; that for `Cc1ccc(OCC(=O)Nc2ccc(N3CCN(C(=O)c4ccco4)CC3)cc2)cc1C` was 35.5 µM [falling, single point].
As for `Cc1ccc(/C=C/c2nc3ccccc3n2S(=O)(=O)c2ccc(Br)cc2)cc1`, the AC50 under setting [1] is 11.2 µM [falling, partial curve, poor fit].
The same measure, in the same setting: the same measure for `Cc1csc(NC(=O)c2cccc(S(=O)(=O)N3CCCCC3)c2)n1`: 9.2 µM [falling, partial curve, poor fit]; for `O=C(C1CC1)N1CCc2cc(Br)cc(S(=O)(=O)NCc3ccc4c(c3)OCO4)c21`: 22.4 µM [falling, single point].
`COc1ccccc1N1C(=O)[C@@H]2[C@H](C1=O)[C@H](C(=O)c1ccc(OC(C)=O)cc1)N1N=CC=C[C@@H]21`: the AC50 under setting [1] is 12.6 µM [falling, partial curve].
The same measure, in the same setting: the value for `CC(=O)Nc1ccc(NCN2C(=O)[C@@H]3[C@H]4CC[C@H](C4)[C@@H]3C2=O)cc1` was 7.31 µM [rising, single point].
For the compound `CCOC(=O)N1CCc2c(sc(NC(=O)c3ccc(Cl)s3)c2C(N)=O)C1`, the AC50 is, setting by setting: under setting [1], 8.2 µM [falling, partial curve]; under setting [2], 23.1 µM [rising, partial curve, poor fit].
`O=S(=O)(Nc1ccc(O)c2ccccc12)c1cccs1`: the AC50 under setting [1] is 35.5 µM [falling, single point].
On to `Cc1nc(Cl)c(C(=O)NC(=O)Nc2cccc(C(F)(F)F)c2)c(C)c1[N+](=O)[O-]`, for which the AC50 under setting [1] is 0.058 µM [falling, partial curve, poor fit].
Turning to `O=C(Cc1cccs1)NCc1cccc(Br)c1`, the AC50 under setting [1] is 15.8 µM [rising, single point].
On the same count and under the same terms, the same measure for `CC(=O)Oc1ccc(C(=O)Nc2cc(C)on2)cc1`: 14.1 µM [falling, single point]; for `CCc1c(-c2ccccc2)nc2nc(C)c(C)nn12`: 13 µM [rising, partial curve, poor fit].
On the same count and under the same terms, the same measure for `CCNC(=S)N1CCC(Cc2ccccc2)CC1`: 12.6 µM [falling, partial curve, poor fit]; for `COc1ccc(CC(=O)Nc2ccc(C(=O)Nc3ccccc3C(=O)O)cc2)cc1OC`: 23.1 µM [falling, single point]; for `COc1cccc(N(C(=O)Cc2cccs2)C(C(=O)NC2CCCC2)c2ccncc2)c1` (configuration not stated): 14.1 µM [rising, partial curve, poor fit].
The same measure, in the same setting: the value for `CCNc1nc(NC(C)C)nc(N(C#N)Cc2ccccc2)n1` was 1.64 µM [falling, full curve].
Regarding `CCOc1ccccc1NC(=O)CSc1n[nH]c(N)n1`, the AC50 under setting [1] is 8.91 µM [falling, partial curve].
For `CC(=O)Nc1ccc(NC(=O)c2nc(-c3ccccc3)oc2C)cc1`, the AC50 under setting [1] was 31.6 µM [falling, partial curve, poor fit].
Still for that read-out and setting: the same measure for `COc1ccc(-c2nc(CS(=O)CC(=O)NCCCN3CCOCC3)c(C)o2)cc1OC` (configuration not stated): 5.62 µM [falling, partial curve, poor fit]; for `CSc1ccc(/C=C/c2nc3ccccc3n2S(=O)(=O)c2ccc(F)c(C)c2)cc1`: 7.08 µM [falling, partial curve]; for `NC(=O)c1ccc(Cn2c(C(=O)c3ccc(Cl)cc3)c3ccccc3[n+]2[O-])cc1`: 4.61 µM [falling, single point].
Turning to `O=C(NCc1ccc(F)cc1)Nc1cccc([N+](=O)[O-])c1`, the AC50 under setting [1] is 5.62 µM [rising, full curve, poor fit].
Still for that read-out and setting: the value for `Cc1ccc2c(NC(=S)NC(=O)c3ccccc3)cccc2n1` was 3.55 µM [falling, partial curve, poor fit].
The same measure, in the same setting: the same measure for `COc1ccccc1-c1cc(C(=O)NCc2ccc(Cl)cc2)no1`: 5.62 µM [falling, full curve, poor fit]; for `Fc1ccc(/C=N/Nc2cc(N3CCOCC3)ncn2)cc1`: 7.94 µM [rising, partial curve].
Same read-out and setting: the same measure for `CCN1C(=O)c2ccccc2S(=O)c2ccc(C(=O)NCCN(CC(C)C)CC(C)C)cc21` (configuration not stated): 35.5 µM [falling, single point].
Consider `CCOC(=O)N1CCC(NC(=S)Nc2ccc3nc(N4CCN(CC)CC4)cc(C)c3c2)CC1`, for which the AC50 was 7.08 µM [falling, partial curve] under setting [1] and 14.1 µM [rising, partial curve, poor fit] under setting [2].
Take `CC1=C([N+](=O)[O-])C(c2cccc(Br)c2)C2=C(N1)c1ccccc1C2=O` (configuration not stated): the AC50 under setting [1] is 1.84 µM [rising, partial curve, poor fit] and the AC50 under setting [2] is 1.84 µM [falling, partial curve, poor fit].
